# Assay results published in the supplement of paper PMC8728848.
# Some of the results follow.
# B1: AT5G24760(45) (Arabidopsis thaliana), Q8LEB2 (protein)
# chain: MSASSSSFEQPQVITCNAAVAWRAGEPLVMEEVEVSPPQPLEIRIKVVCTSLCRSDLSAWESQSLLPRIFGHEAAGIVESIGEGVTEFEKGDHVLAVFTGECGSCRHCISGKSNMCQVLGMERKGLMHSDQKTRFSIKGKPVYHYCAVSSFSEYTVVHSGCAVKVDPLAPLHKICLLSCGVAAGLGAAWNVADVQKGSSVVIFGLGTVGLSVAQGAKLRGAAQILGVDINPAKAEQAKTFGVTDFINSNDLSEPIPQVIKRMTGGGADFSFECVGDTGIATTALQSCSDGWGMTVTLGVPKAKPEVSAHYGLFLSGKSLKGTLFGGWKPKSDLPSLIDKYMNKEIMIDEFITHNLSFDEINKAFVLMREGKCLRCVLHMPK
# Legend:
# Assay in all cases: glycan array binding signal (z-score within array); higher = stronger binding
# Details in all cases: glycan notation: IUPAC condensed, linker removed
# Glc(b1-4)Glc = molecular target: Glc(b1-4)Glc
# Outline: (§1)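 Glycan array binding is given as a within-array Z-score, which can be read as non-binding when negative. The arrays, 3228 of them, came from the Consortium for Functional Glycomics database and were retained only where the protein sequence was available. Z-scores were averaged across arrays of the same protein sequence at different concentrations or buffers and across linkers.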
# Glc(b1-6)Glc = molecular target: Glc(b1-6)Glc
# Outline: as §1
# GlcA(b1-3)Gal = molecular target: GlcA(b1-3)Gal
# Outline: as §1
# GlcA(b1-3)GlcNAc = molecular target: GlcA(b1-3)GlcNAc
# Outline: as §1
# GlcA(b1-6)Gal = molecular target: GlcA(b1-6)Gal
# Outline: as §1
# [1] = molecular target: GlcA3S(b1-3)Gal(b1-4)GlcNAc(b1-2)Man
# Outline: as §1
# [2] = molecular target: GlcA3S(b1-3)Gal(b1-4)GlcNAc(b1-3)Gal(b1-4)Glc
# Outline: as §1
# [3] = molecular target: GlcNAc(a1-3)Gal(b1-4)GlcNAc
# Outline: as §1
# [4] = molecular target: GlcNAc(a1-4)Gal(b1-3)GlcNAc
# Outline: as §1
# [5] = molecular target: GlcNAc(a1-4)Gal(b1-4)GalNAc
# Outline: as §1
# [6] = molecular target: GlcNAc(a1-4)Gal(b1-4)GlcNAc
# Outline: as §1
# [7] = molecular target: GlcNAc(a1-4)Gal(b1-4)GlcNAc(b1-3)Gal(b1-4)Glc
# Outline: as §1
# [8] = molecular target: GlcNAc(a1-4)Gal(b1-4)GlcNAc(b1-3)Gal(b1-4)GlcNAc
# Outline: as §1
# [9] = molecular target: GlcNAc(a1-4)Gal(b1-4)GlcNAc(b1-3)Gal(b1-4)GlcNAc(b1-3)Gal(b1-4)GlcNAc
# Outline: as §1
# [10] = molecular target: GlcNAc(a1-4)Gal(b1-4)GlcNAc(b1-3)Gal(b1-4)[Fuc(a1-3)]GlcNAc(b1-3)Gal(b1-4)[Fuc(a1-3)]GlcNAc
# Outline: as §1
# [11] = molecular target: GlcNAc(a1-6)Gal(b1-4)GlcNAc
# Outline: as §1
# [12] = molecular target: GlcNAc(b1-2)Gal(b1-3)GalNAc
# Outline: as §1
# [13] = molecular target: GlcNAc(b1-2)Man(a1-3)[GlcNAc(b1-2)Man(a1-6)]Man(b1-4)GlcNAc(b1-4)GlcNAc
# Outline: as §1
# [14] = molecular target: GlcNAc(b1-2)Man(a1-3)[GlcNAc(b1-2)Man(a1-6)]Man(b1-4)GlcNAc(b1-4)[Fuc(a1-6)]GlcNAc
# Outline: as §1
# [15] = molecular target: GlcNAc(b1-2)Man(a1-3)[GlcNAc(b1-4)][GlcNAc(b1-2)Man(a1-6)]Man(b1-4)GlcNAc(b1-4)GlcNAc
# Outline: as §1
# [16] = molecular target: GlcNAc(b1-2)Man(a1-3)[GlcNAc(b1-4)][GlcNAc(b1-2)Man(a1-6)]Man(b1-4)GlcNAc(b1-4)[Fuc(a1-6)]GlcNAc
# Outline: as §1
# [17] = molecular target: GlcNAc(b1-2)[GlcNAc(b1-4)]Man(a1-3)[GlcNAc(b1-2)Man(a1-6)]Man(b1-4)GlcNAc(b1-4)GlcNAc
# Outline: as §1
# [18] = molecular target: GlcNAc(b1-2)[GlcNAc(b1-4)]Man(a1-3)[GlcNAc(b1-4)][GlcNAc(b1-2)Man(a1-6)]Man(b1-4)GlcNAc(b1-4)GlcNAc
# Outline: as §1
# [19] = molecular target: GlcNAc(b1-2)[GlcNAc(b1-4)]Man(a1-3)[GlcNAc(b1-4)][GlcNAc(b1-2)[GlcNAc(b1-6)]Man(a1-6)]Man(b1-4)GlcNAc(b1-4)GlcNAc
# Outline: as §1
# [20] = molecular target: GlcNAc(b1-2)[GlcNAc(b1-4)]Man(a1-3)[GlcNAc(b1-4)][GlcNAc(b1-2)[GlcNAc(b1-6)]Man(a1-6)]Man(b1-4)GlcNAc(b1-4)[Fuc(a1-6)]GlcNAc
# Outline: as §1
# [21] = molecular target: GlcNAc(b1-2)[GlcNAc(b1-6)]Man(a1-6)[GlcNAc(b1-2)Man(a1-3)]Man(b1-4)GlcNAc(b1-4)GlcNAc
# Outline: as §1
# [22] = molecular target: GlcNAc(b1-2)[GlcNAc(b1-6)]Man(a1-6)[GlcNAc(b1-2)Man(a1-3)]Man(b1-4)GlcNAc(b1-4)[Fuc(a1-6)]GlcNAc
# Outline: as §1
# [23] = molecular target: GlcNAc(b1-2)[GlcNAc(b1-6)]Man(a1-6)[GlcNAc(b1-4)][GlcNAc(b1-2)Man(a1-3)]Man(b1-4)GlcNAc(b1-4)GlcNAc
# Outline: as §1
# GlcNAc(b1-3)Fuc = molecular target: GlcNAc(b1-3)Fuc
# Outline: as §1
# GlcNAc(b1-3)Gal = molecular target: GlcNAc(b1-3)Gal
# Outline: as §1
# [24] = molecular target: GlcNAc(b1-3)Gal(b1-3)GalNAc
# Outline: as §1
# GlcNAc(b1-3)Gal(b1-4)Glc = molecular target: GlcNAc(b1-3)Gal(b1-4)Glc
# Outline: as §1
# [25] = molecular target: GlcNAc(b1-3)Gal(b1-4)GlcNAc
# Outline: as §1
# [26] = molecular target: GlcNAc(b1-3)Gal(b1-4)GlcNAc(b1-2)Man(a1-3)[GlcNAc(b1-3)Gal(b1-4)GlcNAc(b1-2)Man(a1-6)]Man(b1-4)GlcNAc(b1-4)GlcNAc
# Outline: as §1
# [27] = molecular target: GlcNAc(b1-3)Gal(b1-4)GlcNAc(b1-2)Man(a1-3)[GlcNAc(b1-3)Gal(b1-4)GlcNAc(b1-2)Man(a1-6)]Man(b1-4)GlcNAc(b1-4)[Fuc(a1-6)]GlcNAc
# Outline: as §1
# [28] = molecular target: GlcNAc(b1-3)Gal(b1-4)GlcNAc(b1-2)[GlcNAc(b1-3)Gal(b1-4)GlcNAc(b1-6)]Man(a1-6)[GlcNAc(b1-3)Gal(b1-4)GlcNAc(b1-2)Man(a1-3)]Man(b1-4)GlcNAc(b1-4)GlcNAc
# Outline: as §1
# [29] = molecular target: GlcNAc(b1-3)Gal(b1-4)GlcNAc(b1-3)Gal(b1-4)GlcNAc
# Outline: as §1
# [30] = molecular target: GlcNAc(b1-3)Gal(b1-4)GlcNAc(b1-3)Gal(b1-4)GlcNAc(b1-2)Man(a1-3)[GlcNAc(b1-3)Gal(b1-4)GlcNAc(b1-3)Gal(b1-4)GlcNAc(b1-2)Man(a1-6)]Man(b1-4)GlcNAc(b1-4)GlcNAc
# Outline: as §1
# [31] = molecular target: GlcNAc(b1-3)Gal(b1-4)GlcNAc(b1-3)Gal(b1-4)GlcNAc(b1-2)Man(a1-3)[GlcNAc(b1-3)Gal(b1-4)GlcNAc(b1-3)Gal(b1-4)GlcNAc(b1-2)Man(a1-6)]Man(b1-4)GlcNAc(b1-4)[Fuc(a1-6)]GlcNAc
# Outline: as §1
# [32] = molecular target: GlcNAc(b1-3)Gal(b1-4)GlcNAc(b1-3)Gal(b1-4)GlcNAc(b1-2)[GlcNAc(b1-3)Gal(b1-4)GlcNAc(b1-3)Gal(b1-4)GlcNAc(b1-6)]Man(a1-6)[GlcNAc(b1-3)Gal(b1-4)GlcNAc(b1-3)Gal(b1-4)GlcNAc(b1-2)Man(a1-3)]Man(b1-4)GlcNAc(b1-4)[Fuc(a1-6)]GlcNAc
# Outline: as §1
# [33] = molecular target: GlcNAc(b1-3)Gal(b1-4)GlcNAc(b1-3)Gal(b1-4)GlcNAc(b1-3)Gal(b1-4)GlcNAc(b1-2)Man(a1-3)[GlcNAc(b1-3)Gal(b1-4)GlcNAc(b1-3)Gal(b1-4)GlcNAc(b1-3)Gal(b1-4)GlcNAc(b1-2)Man(a1-6)]Man(b1-4)GlcNAc(b1-4)GlcNAc
# Outline: as §1
# [34] = molecular target: GlcNAc(b1-3)Gal(b1-4)GlcNAc(b1-3)Gal(b1-4)GlcNAc(b1-3)Gal(b1-4)GlcNAc(b1-2)Man(a1-3)[GlcNAc(b1-3)Gal(b1-4)GlcNAc(b1-3)Gal(b1-4)GlcNAc(b1-3)Gal(b1-4)GlcNAc(b1-2)Man(a1-6)]Man(b1-4)GlcNAc(b1-4)[Fuc(a1-6)]GlcNAc
# Outline: as §1
# [35] = molecular target: GlcNAc(b1-3)Gal(b1-4)GlcNAc(b1-3)Gal(b1-4)GlcNAc(b1-3)Gal(b1-4)GlcNAc(b1-2)[GlcNAc(b1-3)Gal(b1-4)GlcNAc(b1-3)Gal(b1-4)GlcNAc(b1-3)Gal(b1-4)GlcNAc(b1-6)]Man(a1-6)[GlcNAc(b1-3)Gal(b1-4)GlcNAc(b1-3)Gal(b1-4)GlcNAc(b1-3)Gal(b1-4)GlcNAc(b1-2)Man(a1-3)]Man(b1-4)GlcNAc(b1-4)[Fuc(a1-6)]GlcNAc
# Outline: as §1
# [36] = molecular target: GlcNAc(b1-3)Gal(b1-4)GlcNAc(b1-3)Gal(b1-4)GlcNAc(b1-3)Gal(b1-4)GlcNAc(b1-3)Gal(b1-4)GlcNAc(b1-2)Man(a1-3)[GlcNAc(b1-3)Gal(b1-4)GlcNAc(b1-3)Gal(b1-4)GlcNAc(b1-3)Gal(b1-4)GlcNAc(b1-3)Gal(b1-4)GlcNAc(b1-2)Man(a1-6)]Man(b1-4)GlcNAc(b1-4)GlcNAc
# Outline: as §1
# [37] = molecular target: GlcNAc(b1-3)Gal(b1-4)GlcNAc(b1-3)Gal(b1-4)GlcNAc(b1-3)Gal(b1-4)GlcNAc(b1-3)Gal(b1-4)GlcNAc(b1-2)Man(a1-3)[GlcNAc(b1-3)Gal(b1-4)GlcNAc(b1-3)Gal(b1-4)GlcNAc(b1-3)Gal(b1-4)GlcNAc(b1-3)Gal(b1-4)GlcNAc(b1-2)Man(a1-6)]Man(b1-4)GlcNAc(b1-4)[Fuc(a1-6)]GlcNAc
# Outline: as §1
binder,measurement,setting,value
B1,glycan array binding signal (z-score),Glc(b1-4)Glc,-0.46
same,glycan array binding signal (z-score),Glc(b1-6)Glc,0.04
same,glycan array binding signal (z-score),GlcA(b1-3)Gal,-0.534
same,glycan array binding signal (z-score),GlcA(b1-3)GlcNAc,-0.811
same,glycan array binding signal (z-score),GlcA(b1-6)Gal,0.546
same,glycan array binding signal (z-score),[1],-0.653
same,glycan array binding signal (z-score),[2],0.151
same,glycan array binding signal (z-score),[3],0.792
same,glycan array binding signal (z-score),[4],-0.339
same,glycan array binding signal (z-score),[5],-0.535
same,glycan array binding signal (z-score),[6],-0.377
same,glycan array binding signal (z-score),[7],-0.266
same,glycan array binding signal (z-score),[8],-0.776
same,glycan array binding signal (z-score),[9],-0.618
same,glycan array binding signal (z-score),[10],0.899
same,glycan array binding signal (z-score),[11],0.513
same,glycan array binding signal (z-score),[12],2.61
same,glycan array binding signal (z-score),[13],-0.369
same,glycan array binding signal (z-score),[14],0.168
same,glycan array binding signal (z-score),[15],0.795
same,glycan array binding signal (z-score),[16],-0.218
same,glycan array binding signal (z-score),[17],1.01
same,glycan array binding signal (z-score),[18],-0.932
same,glycan array binding signal (z-score),[19],0.154
same,glycan array binding signal (z-score),[20],-0.6
same,glycan array binding signal (z-score),[21],-0.081
same,glycan array binding signal (z-score),[22],-0.197
same,glycan array binding signal (z-score),[23],-1.02
same,glycan array binding signal (z-score),GlcNAc(b1-3)Fuc,-0.77
same,glycan array binding signal (z-score),GlcNAc(b1-3)Gal,-0.714
same,glycan array binding signal (z-score),[24],-0.073
same,glycan array binding signal (z-score),GlcNAc(b1-3)Gal(b1-4)Glc,-0.961
same,glycan array binding signal (z-score),[25],0.839
same,glycan array binding signal (z-score),[26],-0.073
same,glycan array binding signal (z-score),[27],1.7
same,glycan array binding signal (z-score),[28],0.138
same,glycan array binding signal (z-score),[29],0.089
same,glycan array binding signal (z-score),[30],1.14
same,glycan array binding signal (z-score),[31],-0.185
same,glycan array binding signal (z-score),[32],0.498
same,glycan array binding signal (z-score),[33],0.23
same,glycan array binding signal (z-score),[34],0.079
same,glycan array binding signal (z-score),[35],0.813
same,glycan array binding signal (z-score),[36],-0.261
same,glycan array binding signal (z-score),[37],0.106

# Laid out differently: results already given.
binder | measurement | setting | value
B1 | glycan array binding signal (z-score) | [27] | 1.7
same | glycan array binding signal (z-score) | [28] | 0.138
